Results deposited as PubChem BioAssay AID1259424 (University of Nebraska Medical Center, 2018).

Screen: 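Seek colon cancer survival genes behaving like KSR1, using a six-gene signature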 (primary screen)
System: human HCT116 colon cancer cells
Reagent: siRNA pool against human genes, 50 nM
Detection: 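Six signature mRNAs by branched-DNA multiplex assay, scaled to two housekeeping genes and non-targeting median, log2; matched to mean KSR1 knockdown profile by Pearson correlation and euclidean distance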
Reading the numbers: mean correlation with KSR1 profile: higher = expression change more like KSR1 knockdown
In all, the deposit lists about 14,000 reagents; this is a part drawn at random. 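Higher correlation or smaller distance means closer resemblance to KSR1 loss; control wells, including KSR1 knockdowns, recur on many plates.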 Not all columns of the deposit are shown. Not stated in the record: the time to read-out.

gene | mean correlation with KSR1 profile
TYRO3 | 0.0731
DMTF1 | -0.815
IGHG4 | -0.348
HCFC2 | 0.215
PDGFD | 0.247
RAD54L | -0.228
SORCS3 | 0.455
SCO2 | 0.782
LRRC7 | -0.131
RPL30 | 0.519
CPA1 | -0.658
PLA2G4A | 0.563
PARD6B | -0.0389
ZNF385D | 0.953
SYNGR4 | 0.0486
FKBP8 | 0.164
ZNF503 | 0.519
PDCD2L | 0.903
HMGB2 | -0.578
KBTBD2 | -0.648
PHACTR4 | -0.169
CSTF2T | -0.256
KIAA0492 (retired record) | -0.0568
MYH10 | 0.262
ARMCX3 | -0.48
TPRA1 | 0.319
NLRX1 | 0.355
EXD3 | 0.436
AKAP13 | -0.0903
CDK19 | 0.234
NID1 | 0.27
ZRSR2 | 0.145
RANBP2 | -0.0463
ZNF16 | -0.276
HNRNPH2 | -0.235
EXOC2 | -0.471
CWC27 | -0.0585
ANXA2 | -0.113
ZNF346 | 0.106
CACNB1 | 0.158
GREM1 | 0.0455
RIPK3 | 0.399
VIL1 | 0.267
ESRP2 | -0.359
ARSL | -0.222
IFT172 | -0.475
SCNN1D | 0.213
SDF2L1 | -0.392
H3-4 | -0.0916
POLG | -0.15
TMEM120A | 0.677
RFWD3 | -0.442
TAS2R8 | 0.359
VOPP1 | 0.241
FBLIM1 | -0.591
LEF1 | 0.281
DNAJC10 | -0.532
HOXD4 | -0.514
RIPOR2 | -0.406
IAPP | 0.419
F8A1 | -0.0881
CYP2B6 | 0.488
ITGBL1 | 0.25
